Results on 34 molecules are retold here after PubChem BioAssay AID1487 (National Center for Advancing Translational Sciences (NCATS), 2009).

SMILES strings stand for the structures. Where “and” joins values, the source holds several entries; their conditions need not be identical. Identical values can stand only once. Some of the results follow. These are further read-outs of the screen, such as a control signal, another cell line or another target. No call is given for them. The list favours compounds with an active or inconclusive main result. Words in brackets tell the shape of the fitted curve; partial curves, single points and poor fits give uncertain potencies.

This assay can be described thus: qHTS Assay for Modulators of Lamin A Splicing. As to conditions: HeLa LMNA splicing GFP/RFP minigene ratio, 48 h. The essentials: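 S3 HeLa stable clones carrying a lamin A-EGFP splicing minigene plus DsRed2 were seeded at 600 cells/well in Opti-MEM with 2% FBS, pin-dosed and incubated 48 h at 37°C. Acumen cytometry (488 nm) gave the GFP/RFP total-intensity ratio.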
For orientation: In qHTS, concentration-response curves come from the screen itself.

The mark [1] stands for this setting: measured here: RFP viability control channel.
The mark [2] stands for this setting: measured here: GFP splicing reporter channel.

For `CCOC(=O)c1ccc2c(c1)nc(-c1ccc(F)cc1)c1nccn12`, the concentration at half-maximal activity (AC50) (commonly the concentration giving half of the maximal activity seen) under setting [1] is 0.0112 µM [rising, full curve, poor fit]. Consider `CCOC(=O)c1c(NC(=O)/C=C/c2ccc3c(c2)OCO3)sc(C)c1CC`, for which the AC50 was 35.5 µM [falling, single point] under setting [2] and 35.5 µM [falling, single point] under setting [1]. Turning to `COc1ccc2c(Cl)c(C(=O)NN)sc2c1`, the AC50 was 35.5 µM [rising, single point] under setting [2] and 31.6 µM [rising, single point] under setting [1]. In the case of `O=C(CN1C2=NCCN2c2ccccc21)C12CC3CC(CC(C3)C1)C2`, the AC50 is, setting by setting: under setting [2], 3.55 µM [rising, partial curve]; under setting [1], 3.55 µM [rising, partial curve]. As for `c1ccc(CNc2nc(CN3CCOCC3)nc3scc(-c4ccccc4)c23)cc1`, under setting [1], the AC50 is 8.91 µM [rising, partial curve]. As for `CC1CCCCC1NC(=S)NC(=O)c1ccccc1Br` (stereo not drawn), the AC50 was 12.6 µM [rising, single point] under setting [2] and 22.4 µM [rising, single point] under setting [1].

Take `COC(=O)/C=C1/N/C(=N\c2nc(C)cc(C)n2)N(c2ccc(C)c(C)c2)C1=O`: the AC50 under setting [1] was 12.6 µM [rising, partial curve, poor fit].

Consider `COc1ccc(Nc2nnc(Cc3ccc(Cl)cc3)c(=O)[nH]2)c(OC)c1`, for which the AC50 is 28.2 µM [falling, single point] under setting [2] and 22.4 µM [falling, single point] under setting [1].

On to `O=C(N/N=C/c1ccc(C(F)(F)F)cc1)c1ccc(O)cc1`, for which, under setting [1], the AC50 was 12.6 µM [rising, single point]. Regarding `COc1ccc(-n2nnnc2SCC(=O)Nc2ccccc2N2CCOCC2)cc1OC`, the AC50 under setting [2] is 0.158 µM [rising, partial curve]. As for `Cc1nc2[nH]c(=S)[nH]c2cc1Br`, the AC50 under setting [1] was 35.5 µM [rising, single point]. Regarding `COc1ccc(/C=C/c2ccc(=O)n(Cc3ccccc3)n2)cc1`, the half-maximal activity concentration (AC50) by setting is: under setting [2], 10 µM [falling, partial curve]; under setting [1], 3.16 µM [falling, full curve]. As to `CC(=O)N1CCc2cc(N=NC3=C(O)CC(C)(C)CC3=O)ccc21`, the AC50 under setting [2] is 0.0112 µM [rising, full curve, poor fit].

With `CN(C(=O)c1ccc2c(c1)N(Cc1cccc(Cl)c1)C(=O)c1ccccc1S2=O)C1CCCCC1` (stereo not drawn), the AC50 under setting [1] is 22.4 µM [rising, single point].

As for `Cc1ccc(C(=O)COC(=O)c2cc(=O)[nH]c3ccccc23)cc1`, the AC50 under setting [2] was 3.16 µM [falling, partial curve, poor fit]. Turning to `Cc1cc(C)cc(OC(=O)CS(=O)c2ccc(C(F)(F)F)cc2[N+](=O)[O-])c1` (stereo not drawn), the half-maximal activity concentration (AC50) is 35.5 µM [falling, single point] under setting [2] and 35.5 µM [falling, single point] under setting [1].

As for `Cc1oc2ncn(C)c(=O)c2c1C(=O)NC(C)c1ccccc1` (stereo not drawn), the AC50 under setting [1] is 5.62 µM [falling, partial curve, poor fit]. For `O=c1c2ccccc2nc2n1C(CSc1ccccc1)CS2` (stereo not drawn), the AC50 under setting [1] is 3.55 µM [rising, partial curve, poor fit]. In the case of `CNCc1ccccc1Sc1cccc2ccccc12`, the half-maximal activity concentration (AC50) under setting [2] was 10 µM [rising, partial curve, poor fit] and the AC50 under setting [1] is 22.4 µM [rising, single point]. As to `COc1ccccc1NCc1cccn1-c1nnc(N2CCOCC2)s1`, the AC50 under setting [2] was 3.16 µM [falling, partial curve, poor fit]. `Cc1ccc(N2C(=O)CC(Sc3ccccc3C(=O)O)C2=O)c([N+](=O)[O-])c1` (stereo not drawn): the AC50 is, setting by setting: under setting [2], 35.5 µM [falling, partial curve, poor fit]; under setting [1], 10 µM [falling, partial curve]. Regarding `CC(=O)[C@@]1(O)CC[C@H]2[C@H]3C[C@@H](C)C4=CC(=O)C=C[C@]4(C)[C@@]3(F)[C@@H](O)C[C@]21C`, the AC50 under setting [2] is 0.0112 µM [falling, full curve]. As for `COc1ccc(NC(=O)c2ccc(Oc3ncccn3)cc2)cc1`, under setting [1], the AC50 was 5.62 µM [rising, single point].

Take `C=C1c2ccccc2NC(=S)N1Cc1ccc2c(c1)OCO2`: the AC50 by setting is: under setting [2], 12.6 µM [rising, partial curve, poor fit]; under setting [1], 20 µM [rising, partial curve, poor fit].

On to `O=C(c1cnc(N2CCCCC2)c2ccccc12)N1CCN(c2ccccc2F)CC1`, for which the concentration at half-maximal activity (AC50) is 35.5 µM [falling, single point] under setting [2] and 22.4 µM [falling, partial curve, poor fit] under setting [1]. With `CC(=O)N1CCc2cc(CNS(=O)(=O)c3ccc(Br)s3)ccc21`, the AC50 was 1.26 µM [rising, full curve, poor fit] under setting [2] and 2.24 µM [rising, full curve] under setting [1].

Turning to `CCCc1cc(=O)[nH]c(=S)[nH]1`, the concentration at half-maximal activity (AC50) is, setting by setting: under setting [2], 0.891 nM [falling, full curve, poor fit] and 2.82 µM [rising, full curve]; under setting [1], 0.000891 µM [falling, full curve, poor fit]. Turning to `CCOC(=O)n1c(=O)n(C)c2ccc(Cl)cc21`, the AC50 under setting [2] is 1.58 µM [falling, full curve, poor fit]. `O=C(c1nn(Cc2ccccc2)c(=O)c2ccccc12)N1CCc2ccccc2C1`: the AC50 under setting [1] was 31.6 µM [rising, single point].

In the case of `COCCCn1c(=S)[nH]c2sc3c(c2c1=O)CCCS3`, the AC50 under setting [1] is 15.8 µM [falling, single point]. For the molecule `CCOc1ccc(C(=O)NCCc2sc3nc(-c4ccc(Cl)cc4)nn3c2C)cc1OCC`, the concentration at half-maximal activity (AC50) under setting [2] was 0.141 µM [falling, full curve].

As for `Cc1cccc(NC(=S)N(CCN2CCOCC2)Cc2ccccc2F)c1`, the AC50 under setting [1] is 0.00316 µM [falling, full curve, poor fit]. For the molecule `COc1ccc(CNC(=O)c2c(C)oc3c2C(=O)c2ccccc2C3=O)cc1`, the AC50 was 14.1 µM [falling, partial curve, poor fit] under setting [2] and 15.8 µM [falling, partial curve] under setting [1].

For `CN(c1ccc(F)cc1)S(=O)(=O)c1ccc(Cl)c(C(=O)Nc2ccc3c(c2)CCC3)c1`, under setting [1], the AC50 is 12.6 µM [rising, partial curve].
